One molecule from paper doi:10.1101/2025.11.17.688911 can be followed below.

This assay addresses taxol-stabilised microtubules polymerised from porcine brain tubulin (pig). In words: cryo-EM structure; 1.5 μM taxol-MTs on the grid, then 6 μM MAP9-MTBD, then 6 μM KIF1A (1–393) in 2 mM AMP-PNP; 3D focused classification on one tubulin dimer; both purified.

Results are given in words; binding and its absence hold for the method and conditions named. Binding can be weak; no strength is given.

B1: KIF1A motor domain, monomeric (mTurquoise2::Human KIF1A (1–393)::strepII) (domain or fragment, UniProt Q12756 1-393)
chain: MAGASVKVAVRVRPFNSREMSRDSKCIIQMSGSTTTIVNPKQPKETPKSFSFDYSYWSHTSPEDINYASQKQVYRDIGEEMLQHAFEGYNVCIFAYGQTGAGKSYTMMGKQEKDQQGIIPQLCEDLFSRINDTTNDNMSYSVEVSYMEIYCERVRDLLNPKNKGNLRVREHPLLGPYVEDLSKLAVTSYNDIQDLMDSGNKARTVAATNMNETSSRSHAVFNIIFTQKRHDAETNITTEKVSKISLVDLAGSERADSTGAKGTRLKEGANINKSLTTLGKVISALAEMDSGPNKNKKKKKTDFIPYRDSVLTWLLRENLGGNSRTAMVAALSPADINYDETLSTLRYADRAKQIRCNAVINEDPNNKLIRELKDEVTRLRDLLYAQGLGDITD
Regarding B1, the binding result is “binds”.
